No constants are given. Whether binding was seen depends on the method and setting. Binding seen in cells or lysates may run through a third protein. These calls come from enrichment with a bait or labelling near it, and not all partners need be listed.

Amino acid sequences for entries named in this document (tags omitted).
UniProt P20263: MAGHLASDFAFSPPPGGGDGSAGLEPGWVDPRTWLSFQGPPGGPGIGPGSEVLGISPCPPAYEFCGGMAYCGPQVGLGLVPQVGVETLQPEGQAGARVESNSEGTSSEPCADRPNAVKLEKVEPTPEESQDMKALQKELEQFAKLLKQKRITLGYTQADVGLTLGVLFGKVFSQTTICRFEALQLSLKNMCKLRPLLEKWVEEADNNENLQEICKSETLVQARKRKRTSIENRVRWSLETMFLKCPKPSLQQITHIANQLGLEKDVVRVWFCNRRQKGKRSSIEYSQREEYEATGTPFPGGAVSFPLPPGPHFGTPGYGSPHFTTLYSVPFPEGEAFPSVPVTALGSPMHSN

First the molecules themselves.
B1: zinc finger protein 217, Q3U0X6 1-1041 (protein)
chain: MPTQSLLVYMDGPEVLSSSLGSQMEVDDAVPIKGPVAVPFRAAQEKSMAVAEGHMPLDCMFCSQVFSQAEDLSQHVLLQHRPTLCEPAVLRVEAEYLSPLDKALEPTEPALEKSGEDPEELSCDVCGQTFPVAFDVESHMKKHKDSFTYGCSMCGRRFKEPWFLKNHMRTHNGKSGTRSKLQQGMESPVTINEVVQPHAPGSISTPYKICMVCGFLFPNKQSLIEHSKVHAKETVPSASNVAPDDHREEPTSPREELLQFLNLRPRSTAGSTVKPMTCIPQLDPFTTYQAWQLATKGKVAVAQEEVKESGQEGSTDNDDSCSEKEELGEIWVGGKAEGSGKSKTSKSSCPGLSQDKEKPRHANSEVPSGDSDPKLSSSKEKPTHCSECSKAFRTYHQLVLHSRVHRKDRRTDALSPTMAVDARQPGTCSPDLSTTLEDSGAGDREGGSEDGSEDGLPDGLHLDKNDDGGKAKPLPSSRECSYCGKFFRSNYYLNIHLRTHTGEKPYKCEFCEYAAAQKTSLRYHLERHHKDKQPVDAAAESKSEGRSQEPQDALLTAADSAQTKNLKRFLDGAKDVKGSPPAKQLKEMPSVFQSVLSPAHSNDTQDFHKHAADSAEKARKSPAPTYLDMQRKKAGEPQASSPVCRLEGVGSLAREAGHREKMDQDADYRHKPGADCQDRPLNLSLGPLHACPAISLSKCLIPSIACPFCTFKTFYPEVLMMHQRLEHRYNPDPHKNGSSKSVLRNRRTGCPPALLGKDVPPLSGLHKPKAKTAFSPHSKSLHSEKARQGASGPSKAPQTSGPDNSTLAPSNLKSHRSQPNAGGTSATRQQQSELFPKGGVPAAMDKVKRPEPKLKSLPASPSQSPLSSNNSNGSVEYPVKVDGPWAQQGRDYYCHRNSGSAAAEYSEPHPKRLKSSAVSLDTEHAGTNGRRGFELPKYHVVRSITSLLPPECVRPPPVLPHKARFLSPGEVESPSVLAVQKPYSASGPLYTCGPVGHAGGSPALEGKRPVSHQHLSNSMLQKRSYENFIGNTHYRPNDKKP
B2: Dax1 (protein, UniProt Q61066 1-472)
chain: MAGEDHPWQGSILYNLLMSAKQKHASQEEREVRLGAQCWGCACGAQPVLGGERLSGGQARSLLYRCCFCGENHPRQGGILYSMLTNARQPSVATQAPRARFGAPCWGCACGSAEPLVGREGLPAGQAPSLLYRCCFCGEEHPRQGSILYSLLTSAQQTHVSREAPEAHRRGEWWQLSYCTQSVGGPEGLQSTQAMAFLYRSYVCGEEQPQQISVASGTPVSADQTPATPQEQPRAPWWDASPGVQRLITLKDPQVVCEAASAGLLKTLRFVKYLPCFQILPLDQQLVLVRSCWAPLLMLELAQDHLHFEMMEIPETNTTQEMLTTRRQETEGPEPAEPQATEQPQMVSAEAGHLLPAAAVQAIKSFFFKCWSLNIDTKEYAYLKGTVLFNPDLPGLQCVKYIEGLQWRTQQILTEHIRMMQREYQIRSAELNSALFLLRFINSDVVTELFFRPIIGAVSMDDMMLEMLCAKL
B3: Nanog (protein, UniProt Q80Z64 1-305)
chain: MSVGLPGPHSLPSSEEASNSGNASSMPAVFHPENYSCLQGSATEMLCTEAASPRPSSEDLPLQGSPDSSTSPKQKLSSPEADKGPEEEENKVLARKQKMRTVFSQAQLCALKDRFQKQKYLSLQQMQELSSILNLSYKQVKTWFQNQRMKCKRWQKNQWLKTSNGLIQKGSAPVEYPSIHCSYPQGYLVNASGSLSMWGSQTWTNPTWSSQTWTNPTWNNQTWTNPTWSSQAWTAQSWNGQPWNAAPLHNFGEDFLQPYVQLQQNFSASDLEVNLEATRESHAHFSTPQALELFLNYSVTPPGEI
B4: E3 ubiquitin-protein ligase TRIM33 (protein, UniProt Q99PP7 1-1142)
chain: MAENKGGGEAESGGGGSGSAPVTAGAAGPTAQEAEPPLAAVLVEEEEEEGGRAGAEGGAAGPDDGGVAAASSSSAPAASVPAASVGSAVPGGAASTPAPAAAPAPAPAPAPAPAPAPAPAPAPGSSSGPPLGPPASLLDTCAVCQQSLQSRREAEPKLLPCLHSFCLRCLPEPERQLSVPIPGGSNGDVQQVGVIRCPVCRQECRQIDLVDNYFVKDTSEAPSSSDEKSEQVCTSCEDNASAVGFCVECGEWLCKTCIEAHQRVKFTKDHLIRKKEDVSESVGTSGQRPVFCPVHKQEQLKLFCETCDRLTCRDCQLLEHKEHRYQFLEEAFQNQKGAIENLLAKLLEKKNYVHFAATQVQNRIKEVNETNKRVEQEIKVAIFTLINEINKKGKSLLQQLENVTKERQMKLLQQQNDITGLSRQVKHVMNFTNWAIASGSSTALLYSKRLITFQLRHILKARCDPVPAANGAIRFHCDPTFWAKNVVNLGNLVIESKPAPGYTPNVVVGQVPPGTNHISKTPGQINLAQLRLQHMQQQVYAQKHQQLQQMRLQQPPAPIPTTTATTQQHPRQAAPQMLQQQPPRLISVQTMQRGNMNCGAFQAHQMRLAQNAARIPGIPRHSAPQYSMMQPHLQRQHSNPGHAGPFPVVSAHNPINPTSPTTATMANANRGPTSPSVTAIELIPSVTNPENLPSLPDIPPIQLEDAGSSSLDNLLSRYISGSHLPPQPTSTMNPSPGPSALSPGSSGLSNSHTPVRPPSTSSTGSRGSCGSSGRTAEKSAHSFKSDQVKVKQEPGTEEEICSFSGAVKQEKTEDGRRSACMLSSPESSLTPPLSTNLHLESELDTLTGLENHVKTEPTDISESCKQSGLSNLVNGKSPIRNLMHRSARIGGDGNSKDDDPNEDWCAVCQNGGDLLCCEKCPKVFHLTCHVPTLLSFPSGDWICTFCRDIGKPEVEYDCDNMQHSKKGKTAQGLSPVDQRKCERLLLYLYCHELSIEFQEPVPVSIPNYYKIIKKPMDLSTVKKKLQKKHSQHYQIPDDFVADVRLIFKNCERFNEMMKVVQVYADTQEINLKGDSEVAKAGKAVALYFEDKLSEIYSDRTFTPLPEFEQDEDDGEVTEDSDEDFIQPRRKRLKSDERPVHIK
B5: Sal-like 1 (protein, UniProt Q9ER74 1-1322)
chain: MSRRKQAKPQHFQSDPEVASLPRRDGDTEKGQPSRPTKSKDAHVCGRCCAEFFELSDLLLHKKSCTKNQLVLIVNESPASPAKTFPPGPSLNDPDDQMKDAANKADQEDCSDLSEPKGLDREESMEVEVPVATTTTTTTGGSGGSGGSTLSGVTNITTPSCHSGCSSGTSAITTSLPQLGDLTTLGNFSVINSNVIIENLQSTKVAVAQFSQEARCGGASGGKLLISTLMEQLLALQQQQIHQLQLIEQIRHQILLLASQSADLPAAPSIPSQGTLRTSANPLTTLSSHLSQQLAVAAGLAQSLASQSANISGVKQLPHVQLPQSSSGTSIVPPSGGTSPNMSIVTAAVPTPSSEKVASNAGASHVSSPAVSASSSPAFAISSLLSPESNPLLPQPTPANAVFPTPLPNIATTAEDLNSLSALAQQRKSKPPNVTAFEAKSTSDEAFFKHKCRFCAKVFGSDSALQIHLRSHTGERPFKCNICGNRFSTKGNLKVHFQRHKEKYPHIQMNPYPVPEHLDNVPTSTGIPYGMSIPSEKPVTSWLDTKPVLPTLTTSVGLPLPPTLPSLTPFIKTEEPAPIPISHSAASPQGSVKSDSGAPDLATRNPSGVPEEVEGSAVPPFGGKGEESNMASSAVPTAGNSTLNSPVADGGPGGTTFTNPLLPLMSEQFKAKFPFGGLLDSAQASETSKLQQLVENIDKKATDPNECIICHRVLSCQSALKMHYRTHTGERPFKCKICGRAFTTKGNLKTHYSVHRAMPPLRVQHSCPICQKKFTNAVVLQQHIRMHMGGQIPNTPVPDNYPESMESDTGSFDEKNFDDLDNFSDENMEECPEGSIPDTPKSADASQDSLSSSPLPLEMSSIAALENQMKMINAGLAEQLQASLKSVENGSMEGDVLTNDSSSVGGDMESQSAGSPAISESTSSMQALSPSNSTQEFHKSPGMEEKPQRVGPGEFANGLSPTPVNGGALDLTSSHAEKIIKEDSLGILFPFRDRGKFKNTACDICGKTFACQSALDIHYRSHTKERPFICTVCNRGFSTKGNLKQHMLTHQMRDLPSQLFEPSSNLGPNQNSAVIPANSLSSLIKTEVNGFVHVSPQDSKDAPTSHVPQGPLSSSATSPVLLPALPRRTPKQHYCNTCGKTFSSSSALQIHERTHTGEKPFACTICGRAFTTKGNLKVHMGTHMWNSTPARRGRRLSVDGPMTFLGGNPVKFPEMFQKDLAARSGSGDPSSFWNQYTAALSNGLAMKANEISVIQNGGIPPIPGSLGSGSSPISGLTGNVEKLGNSEPSAPLAGLEKMASSENGTNFRFTRFVEDSKEIVTS
B6: Zfp281 (protein, UniProt Q99LI5 1-893)
chain: MKIGSGFLSGGGGPSSSGGSGSGGSSGSASGGSGGGRRAEMEPTFPQSMVMFNHRLPPVTSFTRPAGTAAPPPQCVLSSSTSAAPAAEPPPPPAPDMTFKKEPAASAAAFPSQRTSWGFLQSLVSIKQEKPADPEEQPSHHHHHHHHYGGLFAGAEERSPGLGGGEGGSHGVIQDLSLLHQHAQQQPAQHHRDVLLSSGSRTDEHGNQEPKQDANVKKAKRPKPESQGIKAKRKPSASSKPLVGEGEGAVLSPSQKPHICDHCSAAFRSSYHLRRHVLIHTGERPFQCSQCSMGFIQKYLLQRHEKIHSREKPFGCDQCSMKFIQKYHMERHKRTHSGEKPYKCDTCQQYFSRTDRLLKHRRTCGEAIAKGAASAEPGSSNHNSMGNLAVLSQGNTSSSRRKSKSKSIAIENKEHKTGKTNESQMSNNINMQSYSVEMPTVSTSGSIIGTGIDELQKRVPKLIFKKGSRKNADKSYLNFVSPLPDVVGQKSLSGKPGGSLGIVSNNSVETISLLQSTSGKQGPISSNYDDAMQFSKKRRYLPTASSNSAFSINVGHMVSQQSVIQSAGVSVLDNEAPLSLIDSSALNAEIKSCHDKSGIPDEVLQSILDQYSGKSETQKEDPFNLTEPRVDLHTSGEHSELVQEENLSPGTQTPSNDKTSMLQEYSKYLQQAFEKSTNAGFTLGHGFQFVSLSSPLHNHTLFPEKQIYTTSPLECGFGQSVTSVLPSSLPKPPFGMLFGSQPGLYLSALDATHQQLTPSQELDDLIDSQKNLETSSAFQSSSQKLTSQKEQQKNLESSTSFQIPSQELASQIDPQKDIEPRTTYQIENFAQAFGSQFKSGSRVPMTFITNSNGEVDHRVRTSVSDFSGYTNMMSDVSEPCSTRVKTPTSQSYR
B7: RYBP (protein, UniProt Q8CCI5 1-228)
chain: MTMGDKKSPTRPKRQAKPAADEGFWDCSVCTFRNSAEAFKCSICDVRKGTSTRKPRINSQLVAQQVAQQYATPPPPKKEKKEKVEKPDKEKPEKDKDISPSVTKKNTNKKTKPKSDILKDPPSEANSIQSANATTKTSETNHTSRPRLKNVDRSTAQQLAVTVGNVTVIITDFKEKTRSSSTSSSTVTSSAGSEQQNQSSSGSESTDKGSSRSSTPKGDMSAVNDESF

One experiment concerns the target Oct4-FTAP fusion protein (mouse), P20263. As to the kind of experiment: affinity purification with mass spectrometry; one-step purification on anti-FLAG M2 Dynal beads from whole-cell extracts of Oct4-FTAP ESCs against unmodified control cells (AB2.2); 150 mM NaCl, 0.1% NP-40, 90 min, 4°C; elution with AcTEV protease; three independent purifications; LC-MS/MS. Conditions: remark: other sources report otherwise.
With B1, the binding entry is listed as “binds”.

The next experiment addresses Oct4-FTAP fusion protein (mouse) (UniProt P20263). The experiment is described as above.
Conditions: not given
Take B2: the binding result is listed as “binds”. As for B3, the binding result is reported as “binds”. Consider B4, for which the binding result is reported as “binds”. B5: the binding result is recorded as “binds”. For the molecule B6, the binding entry is listed as “binds”. As for B7, the binding result is given as “binds”.
